# Primary screen of a compound library

Sequences of proteins named here, by UniProt entry; tags and fusion partners are left off.
UniProt E9BF75, entry or part of it: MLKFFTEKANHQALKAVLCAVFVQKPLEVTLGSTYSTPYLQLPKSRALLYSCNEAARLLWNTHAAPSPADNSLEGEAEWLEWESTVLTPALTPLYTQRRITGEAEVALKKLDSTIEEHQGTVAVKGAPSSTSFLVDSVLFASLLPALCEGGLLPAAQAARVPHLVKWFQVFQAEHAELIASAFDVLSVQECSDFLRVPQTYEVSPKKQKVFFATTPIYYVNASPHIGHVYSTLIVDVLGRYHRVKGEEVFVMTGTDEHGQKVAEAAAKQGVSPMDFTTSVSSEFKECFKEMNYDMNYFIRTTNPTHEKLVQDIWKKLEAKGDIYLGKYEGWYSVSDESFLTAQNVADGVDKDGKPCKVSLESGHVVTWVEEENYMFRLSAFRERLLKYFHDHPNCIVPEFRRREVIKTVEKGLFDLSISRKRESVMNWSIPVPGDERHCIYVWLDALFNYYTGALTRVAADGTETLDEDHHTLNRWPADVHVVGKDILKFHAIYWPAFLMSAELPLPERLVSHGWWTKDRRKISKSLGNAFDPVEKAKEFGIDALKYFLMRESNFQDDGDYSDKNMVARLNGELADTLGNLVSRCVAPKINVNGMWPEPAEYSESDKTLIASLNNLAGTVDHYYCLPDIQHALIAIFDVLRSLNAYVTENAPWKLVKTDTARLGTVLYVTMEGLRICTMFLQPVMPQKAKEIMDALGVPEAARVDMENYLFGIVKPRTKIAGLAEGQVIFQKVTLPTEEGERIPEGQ

Data taken from ChEMBL document CHEMBL3988442, “University of Dundee, Small-Polar-MMV Screening Library” (2021).

Mtb heat-shock: 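Assay on Mycobacterium tuberculosis, filed only as a heat shock assay from Cornell; the read-out is not stated. The concentration is filed as 10 mM, unlikely as a test dose, so the dose is not known. The record gives no direction; compounds that gave an IC50 in retests scored well above the rest, so higher reads as stronger inhibition. Of about 69,000 compounds tested this way, about 930 (1.4%) reached 50% or more in at least one test.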
LdMetRS: 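Primary screen of methionyl-tRNA synthetase; the read-out is not stated. Target: Methionyl-tRNA synthetase (putative), Leishmania donovani (UniProt E9BF75). The test concentration is not given. Values are per cent inhibition. Of about 68,000 compounds tested this way, about 24 (0.035%) reached 50% or more in at least one test.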

Results are percentages, as filed.
The record does not define 0% and 100%; most values in the screen are far below 50% and negative numbers occur (in some assays of this library far below -100).
Compounds were drawn at random from those tested, without regard to their results.

{"compound": "Cn1ccnc1CN1CCN2C[C@H](Oc3ccccc3)C[C@H]2C1", "LdMetRS": 8.889}
{"compound": "COc1cc(CNC(=O)C(C)SC)cc(Br)c1OC", "stereo": "centres undefined", "Mtb heat-shock": 5.804, "LdMetRS": 25.52}
{"compound": "O=C([C@@H]1Cc2[nH]cnc2CN1CC1CC1)N1CCCC1", "Mtb heat-shock": -4.446, "LdMetRS": -0.5495}
{"compound": "COCC(=O)N1CCC2(C1)c1ccccc1S(=O)(=O)N2C", "stereo": "centres undefined", "Mtb heat-shock": 14.49, "LdMetRS": 7.65}
{"compound": "CC1=Nc2c(c(O)nn2C2CCOCC2)C(c2cccnc2)S1", "stereo": "centres undefined", "Mtb heat-shock": 2.511, "LdMetRS": 6.545}
{"compound": "CC(C)Cc1noc(CN2CCN(C(=O)c3cccc(F)c3)CC2)n1", "Mtb heat-shock": -31.02, "LdMetRS": 14.5}
{"compound": "O=C(C1CC=CC1)N1CC[C@@H]2O[C@H](COCC3CCOCC3)CC[C@@H]21", "LdMetRS": 13.61}
{"compound": "[H][C@@]12CNCC[C@]1(O)CCN(C(=O)Cc1cc(F)ccc1C)C2", "Mtb heat-shock": 0.03775}
{"compound": "CC1CN(C)CCN1C(=O)c1ccc(-n2cnnc2)cc1", "stereo": "centres undefined", "Mtb heat-shock": 10.4, "LdMetRS": 8.333}
{"compound": "CN1CCC/C1=N\\S(=O)(=O)c1ccc(NC(=O)Cc2cccs2)cc1", "Mtb heat-shock": -21.58, "LdMetRS": 10.38}
{"compound": "CN(C)C(=O)c1ccc2c(c1)N(C)C(CC(=O)NCc1ncc[nH]1)CO2", "stereo": "centres undefined", "Mtb heat-shock": -1.035, "LdMetRS": 16.1}
{"compound": "CC(=O)NCC(=O)N1CCc2nc(-c3ccccc3)nc(C)c2CC1", "Mtb heat-shock": 4.805, "LdMetRS": 18.84}
{"compound": "[H][C@]12CC[C@]([H])(CN(C(=O)c3c[nH]c(=O)c(Cl)c3)C1)N(CC=C(C)C)C2", "Mtb heat-shock": 3.09}
{"compound": "COC1CCN(Cc2csc(C(C)C)n2)CC1", "Mtb heat-shock": 9.724, "LdMetRS": 7.904}
{"compound": "Cc1nc(C)c(CC(=O)N2C[C@H]3CC[C@@H]2CN(C(=O)N(C)C)C3)c(=O)[nH]1", "LdMetRS": 6.32}
{"compound": "Cc1nc(N2C[C@@H](CN3CCCCC3)[C@@H](CO)C2)c2sccc2n1", "Mtb heat-shock": -13.99, "LdMetRS": 9.091}
{"compound": "CN(C)c1ncc(-c2ccncc2)c(CCNC(=O)C2CC2)n1", "Mtb heat-shock": -7.088, "LdMetRS": 14.33}
{"compound": "CC(C)CCNc1nc(C(=O)NC2CC2)cs1", "Mtb heat-shock": 15.23, "LdMetRS": 11.08}
{"compound": "CC(C)(C)c1n[nH]c(C2CN(C(=O)C3=COCCC3)CCO2)n1", "stereo": "centres undefined", "Mtb heat-shock": -5.64, "LdMetRS": 16}
{"compound": "Cc1nc(N2CCOCC2)nc(C)c1NC(=O)Cc1ccc(Cl)cc1", "Mtb heat-shock": -13.93, "LdMetRS": -0.7194}
{"compound": "CC(C(=O)NCCN1CCOCC1)n1cncn1", "stereo": "centres undefined", "Mtb heat-shock": -8.358, "LdMetRS": 13.71}
{"compound": "c1cncc(-c2noc(CN3CCc4cncnc4C3)n2)c1", "Mtb heat-shock": -14.59, "LdMetRS": 15.79}
{"compound": "Cn1ccnc1CN1CCN(CCOc2cccc(C#N)c2)CC1", "Mtb heat-shock": -15.86, "LdMetRS": 24.58}